Results from paper PMC5538744.
No constants are given. Whether binding was seen depends on the method and setting. Tags and fused reporters may be left off the sequences shown.

Molecular target: T1, SGS3 fused to the GAL4 DNA binding domain (pGBKT7) (Arabidopsis thaliana (AtSGS3)) (UniProt Q9LDX1)
T1 sequence: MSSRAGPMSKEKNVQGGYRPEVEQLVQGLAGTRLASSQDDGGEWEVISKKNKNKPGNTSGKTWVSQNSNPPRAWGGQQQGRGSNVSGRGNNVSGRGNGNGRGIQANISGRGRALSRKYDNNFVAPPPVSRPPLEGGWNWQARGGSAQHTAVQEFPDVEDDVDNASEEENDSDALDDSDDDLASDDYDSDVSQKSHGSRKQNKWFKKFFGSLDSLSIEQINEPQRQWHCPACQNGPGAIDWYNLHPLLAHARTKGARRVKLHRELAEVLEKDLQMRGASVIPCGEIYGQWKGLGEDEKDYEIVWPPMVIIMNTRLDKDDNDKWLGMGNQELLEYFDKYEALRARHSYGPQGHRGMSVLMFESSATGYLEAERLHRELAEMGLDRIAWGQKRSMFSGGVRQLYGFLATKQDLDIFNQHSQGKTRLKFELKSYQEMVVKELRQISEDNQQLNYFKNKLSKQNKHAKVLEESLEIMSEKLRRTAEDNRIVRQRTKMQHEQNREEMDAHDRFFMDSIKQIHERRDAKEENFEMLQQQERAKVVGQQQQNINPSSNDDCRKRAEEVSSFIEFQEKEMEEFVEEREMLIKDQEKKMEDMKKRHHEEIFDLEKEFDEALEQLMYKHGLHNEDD
Test: two-hybrid; GAL4 system, SGS3 in pGBKT7 and CPs in pGADT7, yeast strain AH109, 30°C, media lacking Trp, Leu, His and Ade

| Substance | binding |
| --- | --- |
| CP^RA fused to the GAL4 activation domain (pGADT7) (Cucumber mosaic virus (Fny strain)) | no binding |
| CP^WT fused to the GAL4 activation domain (pGADT7) (Cucumber mosaic virus (Fny strain)) | no binding |
